The list shows only some results of the screen, not a fair sample: it gathers some chemical classes. Not every dose and run of a compound is shown. T/C: endpoint of the treated group in % of that of the vehicle group. Where survival is the endpoint, this PubChem deposit counts one and a half times the control or more as active, and values a quarter to a half above the control carry no call in these data; other NCI protocols may use other cut-offs. Some T/C values are marked as having no survivor count here; that says nothing about deaths at the dose. Schedule codes are those of the source, read here as Q, the interval in days (D) or hours (H), X, the number of doses. Some entries were tested several times; the results are listed from low to high.
Test system: L1210 leukemia ip in BDF1 mice, survival T/C
Experiment: NCI In Vivo Anticancer Drug Screen. Data for tumor model L1210 Leukemia (intraperitoneal) in B6D2F1 (BDF1) mice
Conditions: T/C endpoint: mean survival time, vehicle: saline, higher T/C = longer survival

With `CN(CCCl)CCCl.CN(CCCl)CCCl.[Cl][Co][Cl]` the T/C (dose: 12.5 mg/kg/injection, schedule: Q01DX009 (ip)) was 93 % of control [survivor count not shown], the T/C (dose: 25.0 mg/kg/injection, schedule: Q01DX009 (ip)) was 106 % of control [survivor count not shown] and the T/C (dose: 50.0 mg/kg/injection, schedule: Q01DX009 (ip)) was 111 % of control [survivor count not shown]. The T/C (dose: 50.0 mg/kg/injection, schedule: Q04DX003 (ip)) was 100 [survivor count not shown] and 116 % of control [survivor count not shown], the T/C (dose: 75.0 mg/kg/injection, schedule: Q04DX003 (ip)) was 120 % of control [survivor count not shown] and the T/C (dose: 100.0 mg/kg/injection, schedule: Q01DX009 (ip)) was 116 % of control [survivor count not shown]. The T/C (dose: 100.0 mg/kg/injection, schedule: Q04DX003 (ip)) was 107 [survivor count not shown] and 120 % of control [survivor count not shown] and the T/C (dose: 150.0 mg/kg/injection, schedule: Q04DX003 (ip)) was 100 % of control [survivor count not shown].

Source: PubChem BioAssay AID248 (DTP/NCI, 2004)
